Test [1] deals with T1, TMEM149 as arrayed on the secreted protein microarray (Genentech SPDI library) (human) (UniProt Q9H665).
T1 sequence: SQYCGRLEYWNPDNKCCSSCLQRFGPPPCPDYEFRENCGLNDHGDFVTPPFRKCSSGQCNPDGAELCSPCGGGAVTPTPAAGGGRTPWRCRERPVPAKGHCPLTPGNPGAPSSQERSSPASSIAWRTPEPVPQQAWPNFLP
The experiment in a line: protein microarray of ~700 secreted or transmembrane proteins probed with Cy-5 labelled IGFL1 (20 ug/ml).

By UniProt entry, the sequences of proteins in these tests, tags left out. Where a name states a change or a piece, a line headed by the entry shows the natural chain unless it says otherwise.
UniProt Q6UW32: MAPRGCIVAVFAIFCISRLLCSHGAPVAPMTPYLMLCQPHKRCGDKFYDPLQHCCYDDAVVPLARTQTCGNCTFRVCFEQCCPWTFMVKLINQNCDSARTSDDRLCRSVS
UniProt Q6UXB1: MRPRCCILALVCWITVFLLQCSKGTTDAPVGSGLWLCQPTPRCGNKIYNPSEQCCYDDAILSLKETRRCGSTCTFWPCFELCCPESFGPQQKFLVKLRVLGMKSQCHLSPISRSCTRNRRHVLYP

The target of test [2] is T1, TMEM149 as arrayed on the secreted protein microarray (Genentech SPDI library) (human). The experiment in a line: protein microarray (SPDI library), fluorescently labelled probe at 20 µg/ml, intensity at 635 nm normalised to the slide average.
The target is the same in test [3]. The experiment in a line: protein microarray probed with fluorescently labelled FLAG-IGFL1.
In test [4] the target is T2, Human TMEM149-GFP on transfected HEK293T cells (human) (UniProt Q9H665).
T2 sequence: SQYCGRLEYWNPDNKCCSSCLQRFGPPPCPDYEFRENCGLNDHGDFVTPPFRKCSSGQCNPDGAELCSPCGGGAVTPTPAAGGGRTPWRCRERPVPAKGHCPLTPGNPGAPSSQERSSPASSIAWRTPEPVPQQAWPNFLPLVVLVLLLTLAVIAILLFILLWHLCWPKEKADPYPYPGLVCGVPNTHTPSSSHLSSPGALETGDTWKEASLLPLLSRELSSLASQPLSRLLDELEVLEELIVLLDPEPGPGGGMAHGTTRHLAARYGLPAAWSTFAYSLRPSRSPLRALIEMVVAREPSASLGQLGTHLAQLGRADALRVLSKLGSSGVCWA
Nature of the test: flow cytometry of HEK293T cells transfected with TMEM149-GFP, FLAG-IGFL1 at 10 µg/ml, fluorescent anti-FLAG. In general terms: Flow cytometry measures light scatter and fluorescence of single cells or particles in a stream.

Test [5] concerns the target T2, Human TMEM149-GFP on transfected HEK293T cells (human). Nature of the test: flow cytometry of HEK293T cells transfected with TMEM149-GFP, FLAG-IGFL3 (as Example 14, 10 µg/ml), fluorescent anti-FLAG.

Here are results for two substances from patent publication US20130302347A1.

These are yes or no findings as the source states them, for the method shown. Some entries that bind do so weakly or less than the wild type. For some assays here: Tags and fused reporters may be left off the sequences shown.

For “FLAG-IGFL1 (recombinant human IGFL1 with FLAG epitope tag) (from UniProt Q6UW32 25-110) (ligand)”, the binding result in test [1], in test [2], in test [3] and in test [4] was “binds” in each case.
“FLAG-IGFL3 (recombinant human IGFL3 with FLAG epitope tag) (from UniProt Q6UXB1 25-125) (ligand)”: the binding result in test [5] is given as “binds”.
